# Results are given in words; binding and its absence hold for the method and conditions named. In cells and extracts the contact can be indirect. Some results given as binding are weak or reduced against the parent protein; the word gives no strength. Where a sequence is shown, tags or fusion partners need not be part of it.
# The chains behind the UniProt entries cited, without tags or fusion partners.
# UniProt Q96D31: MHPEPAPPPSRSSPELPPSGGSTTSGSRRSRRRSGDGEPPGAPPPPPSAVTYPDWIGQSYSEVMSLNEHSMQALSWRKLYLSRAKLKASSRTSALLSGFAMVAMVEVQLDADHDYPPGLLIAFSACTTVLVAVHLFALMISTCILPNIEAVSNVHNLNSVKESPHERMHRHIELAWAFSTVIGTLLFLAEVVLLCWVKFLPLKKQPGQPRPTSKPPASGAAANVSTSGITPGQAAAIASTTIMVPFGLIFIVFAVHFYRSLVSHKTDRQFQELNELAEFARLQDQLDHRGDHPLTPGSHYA
# B1: GFP-SEPT2 (protein, UniProt Q15019 1-361)
# chain: MSKQQPTQFINPETPGYVGFANLPNQVHRKSVKKGFEFTLMVVGESGLGKSTLINSLFLTDLYPERVIPGAAEKIERTVQIEASTVEIEERGVKLRLTVVDTPGYGDAINCRDCFKTIISYIDEQFERYLHDESGLNRRHIIDNRVHCCFYFISPFGHGLKPLDVAFMKAIHNKVNIVPVIAKADTLTLKERERLKKRILDEIEEHNIKIYHLPDAESDEDEDFKEQTRLLKASIPFSVVGSNQLIEAKGKKVRGRLYPWGVVEVENPEHNDFLKLRTMLITHMQDLQEVTQDLHYENFRSERLKRGGRKVENEDMNKDQILLEKEAELRRMQEMIARMQAQMQMQMQGGDGDGGALGHHV
# Biological target: Flag-Myc-Orai1 (UniProt Q96D31)
# Experiment: co-IP; HEK293T cells co-transfected for 18 h; lysis in 20 mM Tris-HCl pH 7.4, 150 mM NaCl, 1% Triton X-100; supernatant incubated overnight at 4 °C with anti-Flag M2 agarose beads; immunoblot; cells with or without 50 µM FCF (SEPTIN inhibitor) and, for STIM1, with or without TG (1 µM)
binder,measurement,value
B1,binding,binds
